Data source: PubChem BioAssay AID686938 (Drosophila RNAi Screening Center, 2013)
The deposit covers about 23,000 reagents; this is an unselected part of those that have a named target and a result. In the full data, 75 (0.33%) got an active call. 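Raw plate signals without normalisation; calls rest on plate z-scores that were not deposited; ratio present for only 364 wells.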 Entries without a mark were called inactive. Not given: the dose of the treatment.

- Screen: 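Knock-downs reducing store-operated calcium influx in Drosophila cells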 (primary screen)
- System: Drosophila S2R+ cells
- Reagent: long dsRNA against Drosophila genes, about 0.25 µg dsRNA per well, roughly 10,000 cells
- Time to read-out: 5 days of knock-down before the calcium assay
- Challenge: thapsigargin (SERCA pump blocker) to empty calcium stores; entry signal taken 4 min after adding it
- Measured: 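Duplicate raw fluo-4 intensities per well from a plate reader, at rest and four minutes after thapsigargin emptied calcium stores; entry-to-rest ratio filled for only some wells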
- Scale: calcium entry signal: higher = stronger calcium signal after store depletion; resting calcium signal: higher = higher resting calcium signal
- Units: calcium entry signal in fluorescence units; resting calcium signal in fluorescence units
- Active means: 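Called when the plate z-score of the entry-to-rest ratio, mean of duplicates, falls below −3; wells with low overall dye signal (Fmax z below −2) or more than five off-targets excluded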
- Meaning of the calls: active = strongly reduced calcium entry; inactive = no strong reduction

{"predicted target": "CG14974", "amplicon": "DRSC08433", "calcium entry signal, replicate 1": 3.00e7, "calcium entry signal, replicate 2": 4.32e7, "resting calcium signal, replicate 1": 1.53e7, "resting calcium signal, replicate 2": 1.94e7}
{"predicted target": "eIF1 (eukaryotic translation initiation factor 1)", "amplicon": "DRSC08520", "calcium entry signal, replicate 1": 1.96e7, "calcium entry signal, replicate 2": 2.61e7, "resting calcium signal, replicate 1": 1.24e7, "resting calcium signal, replicate 2": 1.24e7}
{"predicted target": "CG14408", "amplicon": "DRSC19595", "calcium entry signal, replicate 1": 2.93e7, "calcium entry signal, replicate 2": 3.32e7, "resting calcium signal, replicate 1": 1.42e7, "resting calcium signal, replicate 2": 1.58e7}
{"predicted target": "Rad51D (Rad51 recombinase D)", "amplicon": "DRSC06840", "calcium entry signal, replicate 1": 3.90e7, "calcium entry signal, replicate 2": 4.32e7, "resting calcium signal, replicate 1": 1.84e7, "resting calcium signal, replicate 2": 1.83e7}
{"predicted target": "CG1105", "amplicon": "DRSC12528", "calcium entry signal, replicate 1": 3.39e7, "calcium entry signal, replicate 2": 4.91e7, "resting calcium signal, replicate 1": 1.48e7, "resting calcium signal, replicate 2": 1.98e7}
{"predicted target": "CG13829", "amplicon": "DRSC14679", "calcium entry signal, replicate 1": 4.04e7, "calcium entry signal, replicate 2": 7.52e7, "resting calcium signal, replicate 1": 1.95e7, "resting calcium signal, replicate 2": 2.99e7}
{"predicted target": "Ns1 (Nucleostemin 1)", "amplicon": "DRSC15529", "calcium entry signal, replicate 1": 1.80e7, "calcium entry signal, replicate 2": 2.39e7, "resting calcium signal, replicate 1": 1.12e7, "resting calcium signal, replicate 2": 5.92e7}

Next part; the last 2 above are carried over.
{"predicted target": "CG13829", "amplicon": "DRSC14679", "calcium entry signal, replicate 1": 4.04e7, "calcium entry signal, replicate 2": 7.52e7, "resting calcium signal, replicate 1": 1.95e7, "resting calcium signal, replicate 2": 2.99e7}
{"predicted target": "Ns1 (Nucleostemin 1)", "amplicon": "DRSC15529", "calcium entry signal, replicate 1": 1.80e7, "calcium entry signal, replicate 2": 2.39e7, "resting calcium signal, replicate 1": 1.12e7, "resting calcium signal, replicate 2": 5.92e7}
{"predicted target": "upd2 (unpaired 2)", "amplicon": "DRSC19969", "calcium entry signal, replicate 1": 4.59e7, "calcium entry signal, replicate 2": 3.42e7, "resting calcium signal, replicate 1": 2.08e7, "resting calcium signal, replicate 2": 1.84e7}
{"predicted target": "CG1208", "amplicon": "DRSC12190", "calcium entry signal, replicate 1": 3.86e7, "calcium entry signal, replicate 2": 4.43e7, "resting calcium signal, replicate 1": 1.69e7, "resting calcium signal, replicate 2": 1.92e7}
{"predicted target": "Dnaaf3 (Dynein axonemal assembly factor 3)", "amplicon": "DRSC06684", "calcium entry signal, replicate 1": 5.79e7, "calcium entry signal, replicate 2": 4.74e7, "resting calcium signal, replicate 1": 2.47e7, "resting calcium signal, replicate 2": 2.22e7}
{"predicted target": "CG32221", "amplicon": "DRSC09638", "calcium entry signal, replicate 1": 3.86e7, "calcium entry signal, replicate 2": 3.36e7, "resting calcium signal, replicate 1": 1.91e7, "resting calcium signal, replicate 2": 1.49e7}
{"predicted target": "M6", "amplicon": "DRSC11869", "calcium entry signal, replicate 1": 2.76e7, "calcium entry signal, replicate 2": 4.59e7, "resting calcium signal, replicate 1": 1.28e7, "resting calcium signal, replicate 2": 1.87e7}
{"predicted target": "Cyp311a1 (Cytochrome P450 311a1)", "amplicon": "DRSC20239", "calcium entry signal, replicate 1": 4.07e7, "calcium entry signal, replicate 2": 6.79e7, "resting calcium signal, replicate 1": 1.93e7, "resting calcium signal, replicate 2": 2.84e7}
{"predicted target": "CG2336", "amplicon": "DRSC12581", "calcium entry signal, replicate 1": 3.72e7, "calcium entry signal, replicate 2": 2.89e7, "resting calcium signal, replicate 1": 1.82e7, "resting calcium signal, replicate 2": 1.37e7}
{"predicted target": "CG31100", "amplicon": "DRSC14453", "calcium entry signal, replicate 1": 4.99e7, "calcium entry signal, replicate 2": 3.65e7, "resting calcium signal, replicate 1": 2.37e7, "resting calcium signal, replicate 2": 1.75e7}
{"predicted target": "CG31100", "amplicon": "DRSC14455", "calcium entry signal, replicate 1": 5.23e7, "calcium entry signal, replicate 2": 3.60e7, "resting calcium signal, replicate 1": 2.41e7, "resting calcium signal, replicate 2": 1.59e7}
{"predicted target": "CenG1A (Centaurin gamma 1A)", "amplicon": "DRSC02538", "calcium entry signal, replicate 1": 4.39e7, "calcium entry signal, replicate 2": 2.89e7, "resting calcium signal, replicate 1": 1.84e7, "resting calcium signal, replicate 2": 1.41e7}
{"predicted target": "CenG1A (Centaurin gamma 1A)", "amplicon": "DRSC03505", "calcium entry signal, replicate 1": 4.36e7, "calcium entry signal, replicate 2": 3.10e7, "resting calcium signal, replicate 1": 1.92e7, "resting calcium signal, replicate 2": 1.39e7}
{"predicted target": "CenG1A (Centaurin gamma 1A)", "amplicon": "DRSC03506", "calcium entry signal, replicate 1": 4.45e7, "calcium entry signal, replicate 2": 2.90e7, "resting calcium signal, replicate 1": 1.99e7, "resting calcium signal, replicate 2": 1.48e7}
{"predicted target": "abs (abstrakt)", "amplicon": "DRSC12372", "calcium entry signal, replicate 1": 3.27e7, "calcium entry signal, replicate 2": 3.64e7, "resting calcium signal, replicate 1": 1.77e7, "resting calcium signal, replicate 2": 2.85e7}
{"predicted target": "CG15482", "amplicon": "DRSC02492", "calcium entry signal, replicate 1": 5.67e7, "calcium entry signal, replicate 2": 3.63e7, "resting calcium signal, replicate 1": 2.47e7, "resting calcium signal, replicate 2": 1.69e7}
